Patent US4213968A (priority 1978, dated 1980)

Assay: Boc solid-phase peptide synthesis; Benzhydrylamine resin
Details: whole synthesis, scale 0.50 mmole

## L-tyrosyl-D-alanyl-L-glycyl-L-pentafluoro phenylalanyl-L-methionine enkephalin amide
  isolated mass: 45 mg
